From the supplement of paper PMC10849652
This is one part of the list.

Protein sequences, listed by entry. Tags and fused reporters are not part of them. Lines headed by an entry give the natural chain unless they say otherwise; changes in a name come on top.
UniProt Q7L099: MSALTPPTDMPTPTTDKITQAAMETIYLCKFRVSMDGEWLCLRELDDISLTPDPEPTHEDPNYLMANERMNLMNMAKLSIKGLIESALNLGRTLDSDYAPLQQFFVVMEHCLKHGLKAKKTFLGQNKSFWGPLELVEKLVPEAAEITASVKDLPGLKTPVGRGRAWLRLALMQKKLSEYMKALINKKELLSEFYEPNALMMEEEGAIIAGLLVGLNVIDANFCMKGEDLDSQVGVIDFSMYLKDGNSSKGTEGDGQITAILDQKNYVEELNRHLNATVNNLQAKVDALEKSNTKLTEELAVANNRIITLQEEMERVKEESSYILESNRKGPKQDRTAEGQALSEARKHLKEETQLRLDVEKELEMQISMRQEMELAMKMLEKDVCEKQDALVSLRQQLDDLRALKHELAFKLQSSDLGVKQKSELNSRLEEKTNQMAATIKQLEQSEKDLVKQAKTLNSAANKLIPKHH
UniProt P31949: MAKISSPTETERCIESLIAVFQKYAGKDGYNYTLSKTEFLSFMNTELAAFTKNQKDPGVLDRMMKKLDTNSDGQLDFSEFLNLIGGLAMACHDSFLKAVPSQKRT
UniProt Q96T23: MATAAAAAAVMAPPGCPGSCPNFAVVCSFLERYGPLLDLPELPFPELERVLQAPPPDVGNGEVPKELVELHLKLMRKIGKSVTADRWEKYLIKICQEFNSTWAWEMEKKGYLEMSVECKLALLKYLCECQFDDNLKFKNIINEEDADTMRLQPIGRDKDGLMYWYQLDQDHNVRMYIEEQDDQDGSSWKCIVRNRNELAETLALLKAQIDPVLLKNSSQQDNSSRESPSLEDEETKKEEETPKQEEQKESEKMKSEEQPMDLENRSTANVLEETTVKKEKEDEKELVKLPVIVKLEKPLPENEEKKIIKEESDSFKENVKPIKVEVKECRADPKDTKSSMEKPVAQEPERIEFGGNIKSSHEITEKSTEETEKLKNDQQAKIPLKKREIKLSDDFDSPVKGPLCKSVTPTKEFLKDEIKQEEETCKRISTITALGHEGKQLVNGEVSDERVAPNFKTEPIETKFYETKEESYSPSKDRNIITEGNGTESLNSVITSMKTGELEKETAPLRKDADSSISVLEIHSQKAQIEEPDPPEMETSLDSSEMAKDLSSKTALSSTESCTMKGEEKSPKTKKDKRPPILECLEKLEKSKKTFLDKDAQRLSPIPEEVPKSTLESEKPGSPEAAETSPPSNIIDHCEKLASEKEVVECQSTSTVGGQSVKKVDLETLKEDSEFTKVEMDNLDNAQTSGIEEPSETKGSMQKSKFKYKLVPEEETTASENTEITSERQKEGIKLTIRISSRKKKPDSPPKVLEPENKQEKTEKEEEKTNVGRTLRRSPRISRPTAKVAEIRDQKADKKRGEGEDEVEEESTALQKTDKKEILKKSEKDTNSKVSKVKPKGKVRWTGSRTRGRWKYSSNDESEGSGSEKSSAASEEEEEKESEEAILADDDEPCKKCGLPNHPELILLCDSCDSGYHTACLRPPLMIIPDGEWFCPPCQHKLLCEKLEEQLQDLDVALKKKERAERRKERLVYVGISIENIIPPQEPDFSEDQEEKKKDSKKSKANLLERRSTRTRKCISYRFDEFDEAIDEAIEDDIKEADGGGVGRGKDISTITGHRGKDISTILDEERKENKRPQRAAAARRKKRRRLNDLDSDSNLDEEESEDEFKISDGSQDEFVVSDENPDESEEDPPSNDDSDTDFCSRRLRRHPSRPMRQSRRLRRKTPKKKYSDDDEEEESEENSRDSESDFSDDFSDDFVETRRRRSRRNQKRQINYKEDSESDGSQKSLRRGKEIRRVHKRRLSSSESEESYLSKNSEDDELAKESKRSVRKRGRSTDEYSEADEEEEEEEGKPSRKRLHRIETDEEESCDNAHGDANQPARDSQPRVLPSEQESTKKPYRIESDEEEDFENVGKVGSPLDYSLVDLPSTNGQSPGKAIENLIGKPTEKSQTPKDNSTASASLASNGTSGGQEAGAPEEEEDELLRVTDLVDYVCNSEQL
UniProt Q86VV8: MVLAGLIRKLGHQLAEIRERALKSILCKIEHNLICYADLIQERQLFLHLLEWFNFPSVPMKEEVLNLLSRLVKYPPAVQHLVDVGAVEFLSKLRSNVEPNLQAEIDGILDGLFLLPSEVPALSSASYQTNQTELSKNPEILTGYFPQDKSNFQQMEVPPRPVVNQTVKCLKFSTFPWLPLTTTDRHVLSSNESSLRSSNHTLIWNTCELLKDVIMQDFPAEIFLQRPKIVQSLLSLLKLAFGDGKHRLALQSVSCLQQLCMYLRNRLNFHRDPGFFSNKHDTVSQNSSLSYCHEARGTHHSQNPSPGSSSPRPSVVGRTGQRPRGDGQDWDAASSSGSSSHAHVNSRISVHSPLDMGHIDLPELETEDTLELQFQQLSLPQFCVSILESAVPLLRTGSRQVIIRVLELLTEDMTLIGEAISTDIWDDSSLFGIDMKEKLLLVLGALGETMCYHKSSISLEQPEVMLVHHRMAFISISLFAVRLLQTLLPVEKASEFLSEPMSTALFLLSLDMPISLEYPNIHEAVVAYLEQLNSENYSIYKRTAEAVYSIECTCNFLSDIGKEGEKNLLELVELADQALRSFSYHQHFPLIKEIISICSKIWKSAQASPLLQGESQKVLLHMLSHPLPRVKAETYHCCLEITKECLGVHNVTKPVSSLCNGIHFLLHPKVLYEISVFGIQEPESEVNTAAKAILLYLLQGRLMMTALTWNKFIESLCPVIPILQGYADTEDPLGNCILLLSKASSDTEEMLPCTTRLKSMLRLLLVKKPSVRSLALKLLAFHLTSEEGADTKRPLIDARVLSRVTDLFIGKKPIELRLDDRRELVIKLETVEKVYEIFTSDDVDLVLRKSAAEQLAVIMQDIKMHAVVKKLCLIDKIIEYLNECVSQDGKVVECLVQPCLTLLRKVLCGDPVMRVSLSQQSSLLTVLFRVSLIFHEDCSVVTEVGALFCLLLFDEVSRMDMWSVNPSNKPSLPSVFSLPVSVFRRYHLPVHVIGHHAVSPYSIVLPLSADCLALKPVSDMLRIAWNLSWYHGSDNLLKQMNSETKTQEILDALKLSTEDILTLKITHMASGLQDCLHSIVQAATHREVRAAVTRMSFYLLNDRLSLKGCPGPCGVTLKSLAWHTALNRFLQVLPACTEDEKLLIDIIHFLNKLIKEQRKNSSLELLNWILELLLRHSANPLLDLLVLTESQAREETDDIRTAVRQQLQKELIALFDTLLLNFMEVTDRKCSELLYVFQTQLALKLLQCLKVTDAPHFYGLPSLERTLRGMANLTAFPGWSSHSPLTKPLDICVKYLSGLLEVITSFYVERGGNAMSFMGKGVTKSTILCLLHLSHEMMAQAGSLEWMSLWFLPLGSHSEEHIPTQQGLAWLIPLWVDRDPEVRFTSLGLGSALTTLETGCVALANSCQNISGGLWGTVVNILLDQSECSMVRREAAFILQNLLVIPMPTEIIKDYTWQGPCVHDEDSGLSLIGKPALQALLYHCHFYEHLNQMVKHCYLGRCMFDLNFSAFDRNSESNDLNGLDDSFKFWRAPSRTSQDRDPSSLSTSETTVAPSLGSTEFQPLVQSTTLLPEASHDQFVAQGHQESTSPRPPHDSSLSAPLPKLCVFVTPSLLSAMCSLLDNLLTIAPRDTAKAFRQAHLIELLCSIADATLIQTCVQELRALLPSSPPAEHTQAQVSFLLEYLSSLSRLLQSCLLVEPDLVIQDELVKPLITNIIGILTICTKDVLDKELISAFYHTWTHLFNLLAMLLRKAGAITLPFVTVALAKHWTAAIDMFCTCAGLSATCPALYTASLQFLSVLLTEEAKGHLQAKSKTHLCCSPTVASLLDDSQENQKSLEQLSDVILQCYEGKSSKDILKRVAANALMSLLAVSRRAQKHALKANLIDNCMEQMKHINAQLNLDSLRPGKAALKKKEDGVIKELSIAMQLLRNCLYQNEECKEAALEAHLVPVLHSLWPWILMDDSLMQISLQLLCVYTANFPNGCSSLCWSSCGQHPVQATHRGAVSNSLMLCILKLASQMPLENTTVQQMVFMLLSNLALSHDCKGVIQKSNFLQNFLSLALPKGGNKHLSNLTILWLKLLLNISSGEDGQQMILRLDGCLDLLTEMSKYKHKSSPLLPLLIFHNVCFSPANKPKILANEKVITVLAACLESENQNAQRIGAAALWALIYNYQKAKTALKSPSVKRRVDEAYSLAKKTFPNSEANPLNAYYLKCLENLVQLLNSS
UniProt P23443: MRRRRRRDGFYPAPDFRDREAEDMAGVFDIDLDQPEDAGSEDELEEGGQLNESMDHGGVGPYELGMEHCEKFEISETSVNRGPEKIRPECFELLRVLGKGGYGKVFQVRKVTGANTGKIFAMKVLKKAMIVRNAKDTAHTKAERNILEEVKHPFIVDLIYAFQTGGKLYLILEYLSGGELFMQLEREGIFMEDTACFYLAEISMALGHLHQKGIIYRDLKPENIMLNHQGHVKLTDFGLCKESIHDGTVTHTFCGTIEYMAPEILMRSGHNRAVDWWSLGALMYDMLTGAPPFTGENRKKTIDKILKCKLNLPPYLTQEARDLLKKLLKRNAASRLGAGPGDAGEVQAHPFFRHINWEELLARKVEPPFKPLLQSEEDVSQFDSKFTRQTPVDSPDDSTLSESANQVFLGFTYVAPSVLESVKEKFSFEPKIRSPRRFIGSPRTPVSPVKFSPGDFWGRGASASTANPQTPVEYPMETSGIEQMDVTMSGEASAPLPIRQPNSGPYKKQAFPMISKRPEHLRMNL
UniProt Q8IZ73: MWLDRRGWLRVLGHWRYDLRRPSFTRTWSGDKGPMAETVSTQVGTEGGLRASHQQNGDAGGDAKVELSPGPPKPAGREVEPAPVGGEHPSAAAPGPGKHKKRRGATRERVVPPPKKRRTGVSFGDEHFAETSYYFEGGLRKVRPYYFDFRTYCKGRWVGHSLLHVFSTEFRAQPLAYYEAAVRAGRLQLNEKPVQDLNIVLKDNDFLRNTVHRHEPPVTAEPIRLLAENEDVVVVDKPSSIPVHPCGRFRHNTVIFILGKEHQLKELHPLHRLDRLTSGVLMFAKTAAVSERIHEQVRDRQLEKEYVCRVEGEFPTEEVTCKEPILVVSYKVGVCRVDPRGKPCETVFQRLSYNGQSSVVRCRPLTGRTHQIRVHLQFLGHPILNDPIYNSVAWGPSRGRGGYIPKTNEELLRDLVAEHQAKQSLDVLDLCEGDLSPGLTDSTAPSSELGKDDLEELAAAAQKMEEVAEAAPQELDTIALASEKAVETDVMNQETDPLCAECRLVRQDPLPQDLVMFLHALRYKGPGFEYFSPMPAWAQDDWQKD
UniProt Q96DX4: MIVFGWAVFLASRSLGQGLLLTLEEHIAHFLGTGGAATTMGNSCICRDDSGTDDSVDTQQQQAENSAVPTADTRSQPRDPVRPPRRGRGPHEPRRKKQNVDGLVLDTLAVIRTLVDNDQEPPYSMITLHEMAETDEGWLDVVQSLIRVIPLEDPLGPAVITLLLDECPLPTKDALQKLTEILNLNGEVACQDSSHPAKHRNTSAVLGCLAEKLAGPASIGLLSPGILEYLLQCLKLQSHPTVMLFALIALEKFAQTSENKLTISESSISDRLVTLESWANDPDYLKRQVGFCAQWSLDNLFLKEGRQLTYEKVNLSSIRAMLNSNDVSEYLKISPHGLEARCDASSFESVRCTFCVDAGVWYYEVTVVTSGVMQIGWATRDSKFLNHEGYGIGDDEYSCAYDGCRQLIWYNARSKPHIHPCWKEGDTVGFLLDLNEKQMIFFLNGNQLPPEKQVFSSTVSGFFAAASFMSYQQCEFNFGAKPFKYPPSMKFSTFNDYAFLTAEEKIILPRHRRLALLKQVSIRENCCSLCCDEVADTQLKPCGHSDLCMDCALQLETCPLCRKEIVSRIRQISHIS
UniProt Q6NW29: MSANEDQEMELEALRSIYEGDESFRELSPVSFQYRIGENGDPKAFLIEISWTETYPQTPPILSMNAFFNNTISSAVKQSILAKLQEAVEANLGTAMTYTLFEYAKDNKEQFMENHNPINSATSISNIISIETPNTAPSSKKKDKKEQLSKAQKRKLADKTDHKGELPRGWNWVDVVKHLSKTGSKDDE
UniProt P57060: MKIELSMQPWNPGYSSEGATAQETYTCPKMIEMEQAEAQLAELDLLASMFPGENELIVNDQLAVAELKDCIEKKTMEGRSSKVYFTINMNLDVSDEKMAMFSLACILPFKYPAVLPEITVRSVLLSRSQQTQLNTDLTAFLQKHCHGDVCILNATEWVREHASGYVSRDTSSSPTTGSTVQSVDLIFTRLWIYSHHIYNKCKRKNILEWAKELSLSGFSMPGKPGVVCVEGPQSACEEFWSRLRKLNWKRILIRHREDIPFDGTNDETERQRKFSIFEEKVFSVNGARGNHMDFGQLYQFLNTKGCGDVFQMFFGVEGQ

Experiments:
Assay in all cases: log2 fold change, soluble protein after heating vs DMSO (PISA); higher = thermal stabilisation; K562 lysate, 10 uM; active = over 0.2 and 3.5 SD of the protein, either way, in both replicates (recomputed)
[1] = compound: C1=CC=C(C=C1)[C@H](COC2=CC3=C(C=C2)NC(=O)N3)NC(=O)C4=CC=CN(C4=O)CC5=CC(=C(C=C5)F)F
How it was run: (§1)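 The values are log-two fold changes in thermal stability compared with solvent controls and come from duplicates. They were obtained by TMTpro 16plex LC-MS/MS, with channel sums equalised, on the supernatant after 21,000xg for 90 min. That supernatant came from crude K562 extract at 1 mg/mL protein treated with 10 μM compound for 30 min, heated for 3 min across 48°C-58°C, pooled and brought to 0.5% NP-40 at 4°C.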

[2] = compound: CC1=C(SC2=C1C(=N[C@H](C3=NN=C(N32)C)CC(=O)N)C4=CC=C(C=C4)Cl)C
How it was run: as §1

[3] = compound: CC1=C2C(=CC=C1)N=C(N(C2=O)C3=CC=CC=C3C)CN4C=NC5=C(N=CN=C54)N
How it was run: as §1

[4] = compound: Cc1sc2c(c1C)C(c1ccc(Cl)cc1)=N[C@@H](CC(=O)OC(C)(C)C)c1nnc(C)n1-2
How it was run: as §1

[5] = compound: c1ccc([C@@H]2C[C@H]2NC2CCNCC2)cc1
How it was run: as §1

Measured: log2 fold change

RPS17 (UniProt P08708)
inactive: [1] 0.008 | [2] -0.012 | [3] 0.003 | [4] 0.022 | [5] 0.061

RPS18 (UniProt P62269)
inactive: [1] -0.009 | [2] 0.046 | [3] 0.024 | [4] -0.003 | [5] -0.075

RPS16 (UniProt P62249)
inactive: [1] -0.006 | [2] 0.016 | [3] 0.003 | [4] -0.008 | [5] 0.055

RUFY3 isoform 3 (UniProt Q7L099)
inactive: [1] 0.007 | [2] -0.063 | [3] 0.013 | [4] -0.036 | [5] -0.001

S100A11 (UniProt P31949)
inactive: [1] 0.029 | [2] -0.075 | [3] -0.002 | [4] -0.029 | [5] -0.005

RPS26 (UniProt P62854)
inactive: [1] 0.047 | [2] -0.011 | [3] -0.09 | [4] -0.032 | [5] -0.001

RPS27 (UniProt P42677)
inactive: [1] 0.011 | [2] 0.049 | [3] -0.043 | [4] 0.025 | [5] 0.096

RPS6KC1 (UniProt Q96S38)
inactive: [1] -0.009 | [2] -0.004 | [3] 0.056 | [4] 0.033 | [5] -0.02

Reprinted from the listing (two entries):
RPS27 (UniProt P42677)
inactive: [1] 0.011 | [2] 0.049 | [3] -0.043 | [4] 0.025 | [5] 0.096

RPS6KC1 (UniProt Q96S38)
inactive: [1] -0.009 | [2] -0.004 | [3] 0.056 | [4] 0.033 | [5] -0.02

Next part

RSF1 (UniProt Q96T23)
inactive: [1] -0.03 | [2] 0.008 | [3] 0.173 | [4] -0.071 | [5] 0

RWDD2A (UniProt Q9UIY3)
inactive: [1] -0.126 | [2] 0.005 | [3] -0.116 | [4] 0.087 | [5] 0.152

RPL9 (UniProt P32969)
inactive: [1] 0.031 | [2] -0.009 | [3] 0.004 | [4] -0.015 | [5] 0.018

RTTN (UniProt Q86VV8)
inactive: [1] 0.089 | [2] -0.033 | [3] -0.289 | [4] 0.046 | [5] 0.024

RPS6KB1 (UniProt P23443)
inactive: [1] 0.029 | [2] -0.051 | [3] 0.027 | [4] 0.023 | [5] -0.018

RPS15A (UniProt P62244)
inactive: [1] 0.013 | [2] 0.018 | [3] 0.021 | [4] 0.058 | [5] 0.035

RPS11 (UniProt P62280)
inactive: [1] -0.006 | [2] 0.022 | [3] -0.005 | [4] -0.006 | [5] 0.029

RPUSD2 (UniProt Q8IZ73)
inactive: [1] 0.008 | [2] 0.011 | [3] 0.036 | [4] 0 | [5] -0.022

RSPRY1 (UniProt Q96DX4)
inactive: [1] 0.031 | [2] 0.012 | [3] 0.023 | [4] -0.037 | [5] -0.013

RPS8 (UniProt P62241)
inactive: [1] 0.025 | [2] 0.014 | [3] 0.01 | [4] 0.003 | [5] 0.02

RPL8 (UniProt P62917)
inactive: [1] -0.012 | [2] -0.036 | [3] -0.031 | [4] 0.066 | [5] 0.032

RWDD4 (UniProt Q6NW29)
inactive: [1] 0.039 | [2] -0.089 | [3] -0.029 | [4] 0.033 | [5] -0.008

RRBP1 isoform 3 (UniProt Q9P2E9)
inactive: [1] 0.188 | [2] 0.005 | [3] 0.098 | [4] -0.026

RPS3 (UniProt P23396)
inactive: [1] -0.009 | [2] 0.021 | [3] -0.022 | [4] 0.033 | [5] 0.039

RWDD2B (UniProt P57060)
inactive: [1] 0.179 | [2] -0.125 | [3] -0.042 | [4] -0.033

RUSC2 (UniProt Q8N2Y8)
inactive: [1] -0.178 | [2] 0.097 | [3] 0.059 | [4] 0.157 | [5] 0.113

RTN3 isoform 5 (UniProt O95197)
inactive: [1] -0.083 | [2] 0.064 | [3] -0.083 | [4] -0.007 | [5] 0.152
